This note sets out measurements from PMC8750186.

Assay [1] addresses complement factor H (FH) (human (endogenous in hTERT-RPE1)) (UniProt P08603). The assay is described as follows: affinity purification with mass spectrometry; hTERT-RPE1 lysates (0.5% NP40, TBS, after 48 h in serum free medium) with anti-FH antibody clone C18/3 or control IgG, 1 h 4 °C, Protein G PLUS-Agarose overnight 4 °C, acidic elution, tryptic digest, LC-MS/MS; enrichment over IgG control, FDR < 0.05.

Assay [2] addresses T1, complement factor H (FH) (human (endogenous in hTERT-RPE1)), P08603.
T1 chain: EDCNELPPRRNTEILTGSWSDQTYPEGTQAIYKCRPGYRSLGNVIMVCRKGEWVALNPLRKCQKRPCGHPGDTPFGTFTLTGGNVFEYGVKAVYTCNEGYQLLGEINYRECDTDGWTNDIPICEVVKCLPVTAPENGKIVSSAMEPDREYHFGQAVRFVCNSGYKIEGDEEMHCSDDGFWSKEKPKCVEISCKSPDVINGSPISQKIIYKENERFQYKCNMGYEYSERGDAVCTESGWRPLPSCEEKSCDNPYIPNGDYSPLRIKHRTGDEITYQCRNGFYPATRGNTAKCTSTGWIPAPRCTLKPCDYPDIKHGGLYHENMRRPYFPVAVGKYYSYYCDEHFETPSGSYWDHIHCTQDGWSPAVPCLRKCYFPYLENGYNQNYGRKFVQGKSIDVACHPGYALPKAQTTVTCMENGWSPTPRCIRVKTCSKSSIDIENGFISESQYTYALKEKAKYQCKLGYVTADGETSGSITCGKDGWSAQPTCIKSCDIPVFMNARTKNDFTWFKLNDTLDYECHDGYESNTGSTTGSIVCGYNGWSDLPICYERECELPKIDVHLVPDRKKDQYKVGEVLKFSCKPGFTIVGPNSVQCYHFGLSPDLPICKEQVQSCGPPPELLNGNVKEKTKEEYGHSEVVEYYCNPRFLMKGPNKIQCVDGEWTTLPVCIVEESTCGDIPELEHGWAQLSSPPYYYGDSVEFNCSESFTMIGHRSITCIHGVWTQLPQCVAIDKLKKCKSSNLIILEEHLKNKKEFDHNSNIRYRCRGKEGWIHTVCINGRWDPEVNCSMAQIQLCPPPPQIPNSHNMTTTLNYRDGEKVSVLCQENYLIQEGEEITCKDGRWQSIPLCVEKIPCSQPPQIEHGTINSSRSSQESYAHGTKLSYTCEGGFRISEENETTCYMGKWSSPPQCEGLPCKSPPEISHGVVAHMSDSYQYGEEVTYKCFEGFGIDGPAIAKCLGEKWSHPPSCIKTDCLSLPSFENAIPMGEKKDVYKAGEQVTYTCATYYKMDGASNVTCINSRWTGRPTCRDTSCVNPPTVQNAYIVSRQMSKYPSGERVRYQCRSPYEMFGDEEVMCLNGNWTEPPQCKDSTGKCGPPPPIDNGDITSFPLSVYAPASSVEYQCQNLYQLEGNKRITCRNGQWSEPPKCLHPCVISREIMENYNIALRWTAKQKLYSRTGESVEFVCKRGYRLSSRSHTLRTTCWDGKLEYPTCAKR
Described as above. Conditions: remark: other sources report otherwise.

Results are given in words; binding and its absence hold for the method and conditions named. Binding seen in cells or lysates may run through a third protein. Here binding means that the protein was enriched with, or labelled near, the bait; the list need not be complete. For part of these data: No binding means not detected with the bait.

B1: RB1 (protein, UniProt P06400 1-928)
chain: MPPKTPRKTAATAAAAAAEPPAPPPPPPPEEDPEQDSGPEDLPLVRLEFEETEEPDFTALCQKLKIPDHVRERAWLTWEKVSSVDGVLGGYIQKKKELWGICIFIAAVDLDEMSFTFTELQKNIEISVHKFFNLLKEIDTSTKVDNAMSRLLKKYDVLFALFSKLERTCELIYLTQPSSSISTEINSALVLKVSWITFLLAKGEVLQMEDDLVISFQLMLCVLDYFIKLSPPMLLKEPYKTAVIPINGSPRTPRRGQNRSARIAKQLENDTRIIEVLCKEHECNIDEVKNVYFKNFIPFMNSLGLVTSNGLPEVENLSKRYEEIYLKNKDLDARLFLDHDKTLQTDSIDSFETQRTPRKSNLDEEVNVIPPHTPVRTVMNTIQQLMMILNSASDQPSENLISYFNNCTVNPKESILKRVKDIGYIFKEKFAKAVGQGCVEIGSQRYKLGVRLYYRVMESMLKSEEERLSIQNFSKLLNDNIFHMSLLACALEVVMATYSRSTSQNLDSGTDLSFPWILNVLNLKAFDFYKVIESFIKAEGNLTREMIKHLERCEHRIMESLAWLSDSPLFDLIKQSKDREGPTDHLESACPLNLPLQNNHTAADMYLSPVRSPKKKGSTTRVNSTANAETQATSAFQTQKPLKSTSLSLFYKKVYRLAYLRLNTLCERLLSEHPELEHIIWTLFQHTLQNEYELMRDRHLDQIMMCSMYGICKVKNIDLKFKIIVTAYKDLPHAVQETFKRVLIKEEEYDSIIVFYNSVFMQRLKTNILQYASTRPPTLSPIPHIPRSPYKFPSSPLRIPGGNIYISPLKSPYKISEGLPTPTKMTPRSRILVSIGESFGTSEKFQKINQMVCNSDRVLKRSAEGSNPPKPLKKLRFDIEGSDEADGSKHLPGESKFQQKLAEMTSTRTRMQKQKMNDSMDTSNKEEK
B1: the binding entry in assay [1] is given as “binds”.

B2: Fibulin3, Q12805 18-493 (protein)
chain: QDTEETITYTQCTDGYEWDPVRQQCKDIDECDIVPDACKGGMKCVNHYGGYLCLPKTAQIIVNNEQPQQETQPAEGTSGATTGVVAASSMATSGVLPGGGFVASAAAVAGPEMQTGRNNFVIRRNPADPQRIPSNPSHRIQCAAGYEQSEHNVCQDIDECTAGTHNCRADQVCINLRGSFACQCPPGYQKRGEQCVDIDECTIPPYCHQRCVNTPGSFYCQCSPGFQLAANNYTCVDINECDASNQCAQQCYNILGSFICQCNQGYELSSDRLNCEDIDECRTSSYLCQYQCVNEPGKFSCMCPQGYQVVRSRTCQDINECETTNECREDEMCWNYHGGFRCYPRNPCQDPYILTPENRCVCPVSNAMCRELPQSIVYKYMSIRSDRSVPSDIFQIQATTIYANTINTFRIKSGNENGEFYLRQTSPVSAMLVLVKSLSGPREHIVDLEMLTVSSIGTFRTSSVLRLTIIVGPFSF
Regarding B2, the binding result in assay [2] was “no binding”.

B3: TFDP2 (protein, UniProt Q14188 1-446)
chain: MTAKNVGLTSTNAEVRGFIDQNLSPTKGNISFVAFPVSNTNSPTKILPKTLGPINVNVGPQMIISTPQRLTSSGSVLIGSPYTPAPAMVTQTHIAEATGWVPGDRKRARKFIDSDFSESKRSKKGDKNGKGLRHFSMKVCEKVQRKGTTSYNEVADELVSEFTNSNNHLAADSAYDQKNIRRRVYDALNVLMAMNIISKEKKEIKWIGLPTNSAQECQNLEIEKQRRIERIKQKRAQLQELLLQQIAFKNLVQRNRQNEQQNQGPPALNSTIQLPFIIINTSRKTVIDCSISSDKFEYLFNFDNTFEIHDDIEVLKRMGMSFGLESGKCSLEDLKLAKSLVPKALEGYITDISTGPSWLNQGLLLNSTQSVSNLDLTTGATLPQSSVNQGLCLDAEVALATGQFLAPNSHQSSSAASHCSESRGETPCSFNDEDEEDDEEDSSSPE
As to B3, the binding result in assay [1] was “binds”.
